Data taken from patent US6630347B1, “Endothelial NOS transgenic animals and methods of use” (The General Hospital Corporation, priority 1996, dated 2003).
For at least one compound, name, drawing or mass did not settle the structure.

System: aortic rings
Test: Endothelium-dependent relaxation of aortic rings in response to acetylcholine
Parameters: species or system mice
Settings: eNOS mutant aortic segments
Excerpt: The rings were pre-contracted with 10^−7 M norepinephrine and exposed to increasing concentrations of acetylcholine (ACh) from 10^−8 M to 3×10^−5 M. 2-3 segments were collected from each mouse, and five mice were used from the wild-type and eNOS mutant groups. Mean data from each animal were used. Respective tracings are shown. Acetylcholine concentrations are expressed in logM.

Compound: CC(=O)OCC[N+](C)(C)C [acetylcholine]
- relaxation to acetylcholine: do not relax
